Here are results for one sequence from publication PMC5996148.

Chains of the proteins cited; added tags and fusions are not shown. Lines headed by an entry give the natural chain unless they say otherwise; changes in a name come on top.
UniProt P31941: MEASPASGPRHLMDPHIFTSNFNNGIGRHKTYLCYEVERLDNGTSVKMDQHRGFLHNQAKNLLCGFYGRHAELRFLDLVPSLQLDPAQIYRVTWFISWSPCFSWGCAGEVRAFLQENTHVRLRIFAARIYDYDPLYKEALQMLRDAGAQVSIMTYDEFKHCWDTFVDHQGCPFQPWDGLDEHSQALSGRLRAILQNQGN
UniProt P05067, whole entry: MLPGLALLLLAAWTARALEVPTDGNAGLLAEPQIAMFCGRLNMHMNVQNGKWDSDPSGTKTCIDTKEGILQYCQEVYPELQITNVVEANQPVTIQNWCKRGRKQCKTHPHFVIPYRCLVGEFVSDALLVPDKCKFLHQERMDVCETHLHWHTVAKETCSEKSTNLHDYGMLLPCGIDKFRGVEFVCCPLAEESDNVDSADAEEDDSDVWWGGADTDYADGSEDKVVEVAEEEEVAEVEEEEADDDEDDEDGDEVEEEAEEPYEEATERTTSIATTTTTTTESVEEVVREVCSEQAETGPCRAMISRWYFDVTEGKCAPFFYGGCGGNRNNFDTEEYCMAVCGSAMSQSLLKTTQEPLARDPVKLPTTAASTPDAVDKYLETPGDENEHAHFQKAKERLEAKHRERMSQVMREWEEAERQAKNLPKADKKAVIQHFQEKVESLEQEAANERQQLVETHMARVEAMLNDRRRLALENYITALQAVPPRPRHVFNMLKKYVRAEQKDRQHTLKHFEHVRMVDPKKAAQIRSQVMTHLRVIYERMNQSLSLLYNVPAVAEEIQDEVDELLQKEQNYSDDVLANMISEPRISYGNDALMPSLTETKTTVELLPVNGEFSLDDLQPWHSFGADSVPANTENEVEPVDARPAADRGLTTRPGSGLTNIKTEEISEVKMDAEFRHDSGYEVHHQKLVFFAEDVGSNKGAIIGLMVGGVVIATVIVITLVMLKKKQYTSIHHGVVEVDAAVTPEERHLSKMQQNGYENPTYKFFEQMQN

This is one part of the list. For some of these results: The source does not settle which construct or isoform was used.

What all share (experiment): protein microarray (ProtoArray v5.0), streptavidin-Alexa Fluor 647
Common to all, as to details: 3'-biotin; 20 mM Tris (pH 7.5), 5 mM MgCl2, 100 mM KCl, 0.1% Tween-20, A/T-rich and random oligonucleotide blockers; temperature not stated; high values mean tight binding

One test has as its target APOBEC3A (UniProt P31941).
For the next test, the target named is T1, APOBEC3C (UniProt Q9NRW3).
T1 sequence: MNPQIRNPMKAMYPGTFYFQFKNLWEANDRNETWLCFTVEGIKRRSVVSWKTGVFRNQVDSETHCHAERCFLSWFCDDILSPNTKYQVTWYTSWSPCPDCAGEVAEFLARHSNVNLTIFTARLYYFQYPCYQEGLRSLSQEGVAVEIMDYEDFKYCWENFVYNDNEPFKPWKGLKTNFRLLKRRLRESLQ

A further test relates to APOC2 (human).
For a further test, the system named is APOH (human).
Another test deals with APP (UniProt P05067).
Another test concerns APPL2 (human).
The next test concerns AQP5 (human).
The target in a further test is T2, AQP8 (UniProt O94778).
T2 sequence: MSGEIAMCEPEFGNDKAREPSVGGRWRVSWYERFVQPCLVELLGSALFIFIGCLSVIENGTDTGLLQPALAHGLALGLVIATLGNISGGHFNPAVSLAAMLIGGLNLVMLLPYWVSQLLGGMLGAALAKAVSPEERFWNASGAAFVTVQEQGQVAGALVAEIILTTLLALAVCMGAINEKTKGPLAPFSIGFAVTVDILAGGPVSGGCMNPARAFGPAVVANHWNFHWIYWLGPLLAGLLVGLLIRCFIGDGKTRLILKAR

Another test relates to ARF4 (human).
In another test the test system is ARF5 (human).

On to “GGGGACAGGGGTATGGGGAGGGG [G4-3 biotinylated (CtG)]”, for which the binding signal is -0.332 z-score in the test with APOBEC3A; 4.77 z-score in the test with APOBEC3C; -0.319 z-score in the test on APOC2 (human); -0.33 z-score with APOH (human); -0.303 z-score with APP; -0.328 z-score in the test with APPL2 (human). The binding signal was -0.328 z-score in the test on AQP5 (human), -0.329 z-score with AQP8, -0.323 z-score in the test on ARF4 (human) and -0.327 z-score in the test with ARF5 (human).
